Data on 38 sequences can be found in paper PMC7862700.

Chains of the proteins cited; added tags and fusions are not shown. Lines headed by an entry give the natural chain unless they say otherwise; changes in a name come on top.
UniProt Q9Y603: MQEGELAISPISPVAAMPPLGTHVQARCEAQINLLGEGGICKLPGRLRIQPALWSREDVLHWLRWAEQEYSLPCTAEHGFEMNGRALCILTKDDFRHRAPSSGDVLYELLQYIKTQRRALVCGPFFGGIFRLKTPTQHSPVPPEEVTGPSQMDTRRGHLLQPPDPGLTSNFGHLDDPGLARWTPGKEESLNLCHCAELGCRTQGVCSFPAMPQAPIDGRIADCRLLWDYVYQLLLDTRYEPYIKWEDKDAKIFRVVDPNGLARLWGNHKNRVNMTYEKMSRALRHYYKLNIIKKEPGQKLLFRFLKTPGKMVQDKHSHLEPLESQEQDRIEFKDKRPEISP
UniProt P41212: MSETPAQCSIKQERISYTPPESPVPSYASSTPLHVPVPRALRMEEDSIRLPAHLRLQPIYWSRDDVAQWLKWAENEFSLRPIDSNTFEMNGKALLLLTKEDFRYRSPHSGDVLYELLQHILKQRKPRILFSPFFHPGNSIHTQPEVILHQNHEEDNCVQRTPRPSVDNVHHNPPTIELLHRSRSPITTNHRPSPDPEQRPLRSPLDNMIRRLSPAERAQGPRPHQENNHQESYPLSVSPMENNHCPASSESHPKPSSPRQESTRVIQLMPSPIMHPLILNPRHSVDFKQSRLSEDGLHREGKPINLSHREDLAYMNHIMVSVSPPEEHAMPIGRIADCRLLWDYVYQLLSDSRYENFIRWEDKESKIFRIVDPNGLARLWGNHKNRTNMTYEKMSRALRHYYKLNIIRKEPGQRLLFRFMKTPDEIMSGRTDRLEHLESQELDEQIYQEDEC

Only a part is listed here, and it is no random draw. At the low end of the ranking the order means little.

In one experiment the target is T1, ELF3 (UniProt P78545).
T1 sequence: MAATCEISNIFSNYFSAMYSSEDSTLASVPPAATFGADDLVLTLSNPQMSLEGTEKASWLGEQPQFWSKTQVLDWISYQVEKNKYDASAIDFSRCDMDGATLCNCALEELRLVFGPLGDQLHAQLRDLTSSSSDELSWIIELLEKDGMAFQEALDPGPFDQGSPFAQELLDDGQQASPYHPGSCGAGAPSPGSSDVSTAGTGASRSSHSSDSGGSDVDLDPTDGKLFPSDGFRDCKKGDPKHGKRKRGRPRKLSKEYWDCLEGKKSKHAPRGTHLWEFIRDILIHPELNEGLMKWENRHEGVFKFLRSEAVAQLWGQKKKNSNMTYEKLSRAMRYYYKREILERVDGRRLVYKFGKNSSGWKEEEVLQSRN
The experiment can be described thus: DAPPL (digital affinity profiling via proximity ligation, sequencing). To be noted: 10 mM Tris-HCl pH 7.5, 50 mM NaCl, 1 mM DTT, 4% glycerol, room temperature, 30 min; GST-TFs on glutathione beads, 16-mer random dsDNA library, 0.1% …; high values mean tight binding; double strand, one strand shown; scale: fold enrichment (6-mer frequency, TF over GST control).
Take GCAGAG: the binding signal came to 0.697.

GAGGCG displayed a binding signal of 0.411.

For the sequence CTAGAG, the binding signal came to 0.995.

For GGCAAG, the binding signal turned out to be 0.757.

AGATAC displayed a binding signal of 1.01.

On to CCTGTC, for which the binding signal came to 0.989.

In the case of GAGTAA, the binding signal turned out to be 0.505.

Turning to CCGTGT, the binding signal came to 0.45.

Sequence GACTGA gave a binding signal of 0.781.

As to TCGGTC, the binding signal was determined as 0.506.

On to AGCCAA, for which the binding signal turned out to be 0.899.

In turn, CGCGGA returned a binding signal of 1.07.

Consider GTGAGG, for which the binding signal came out at 0.234.

For GTGGTG, the binding signal turned out to be 0.811.

In turn, GCCATA displayed a binding signal of 0.862.

The sequence GGCAGA returned a binding signal of 0.536.

As for TCGTAG, the binding signal turned out to be 0.836.

Sequence CCGTCG gave a binding signal of 0.817.

AGGACT had a binding signal of 0.879.

Consider GACTGG, for which the binding signal is 0.666.

TGCGTG: the binding signal turned out to be 0.681.

In turn, GAGACT showed a binding signal of 0.368.

Sequence AAGCCA showed a binding signal of 0.928.

For the sequence GCAGGC, the binding signal came to 0.644.

GTAGAG registered a binding signal of 0.601.

Turning to TCCAGG, the binding signal is 0.927.

Sequence CAGGGG came in with a binding signal of 0.608.

AGCAGT registered a binding signal of 0.694.

TAAGTG: the binding signal stood at 0.786.

In turn, GCGCAG had a binding signal of 0.746.

As for GAGTCG, the binding signal came to 0.205.

On to CGGGAG, for which the binding signal turned out to be 0.191.

GATTGG yielded a binding signal of 0.879.

As to GGCGTC, the binding signal stood at 0.845.

As to CAGGGC, the binding signal is 0.762.

CAAGGA gave a binding signal of 0.903.

In turn, AGGTAG gave a binding signal of 0.678.

Regarding GAGCGG, the binding signal was determined as 0.491.

The next experiment addresses ETV7 (UniProt Q9Y603). The experiment is described as above. The note with it: 10 mM Tris-HCl pH 7.5, 50 mM NaCl, 1 mM DTT, 4% glycerol, room temperature, 30 min; GST-TFs on glutathione beads, 16-mer random dsDNA library, 0.1% …; high values mean tight binding; double strand, one strand shown; scale: fold enrichment (6-mer frequency, TF over GST control).
GCAGAG: the binding signal is 0.716.

Regarding GAGGCG, the binding signal is 0.512.

For CTAGAG, the binding signal was found to be 0.857.

Regarding GGCAAG, the binding signal worked out at 0.65.

AGATAC gave a binding signal of 0.934.

Sequence CCTGTC showed a binding signal of 1.03.

Turning to GAGTAA, the binding signal was found to be 0.61.

CCGTGT: the binding signal stood at 0.525.

With GACTGA, the binding signal was determined as 0.759.

For the sequence TCGGTC, the binding signal was found to be 0.609.

Take AGCCAA: the binding signal turned out to be 0.82.

For CGCGGA, the binding signal amounted to 0.904.

GTGAGG registered a binding signal of 0.309.

As to GTGGTG, the binding signal turned out to be 1.

In the case of GCCATA, the binding signal was 0.88.

As for GGCAGA, the binding signal turned out to be 0.661.

The sequence TCGTAG gave a binding signal of 0.965.

In the case of CCGTCG, the binding signal came out at 0.865.

AGGACT came in with a binding signal of 0.931.

Sequence GACTGG came in with a binding signal of 0.741.

As to TGCGTG, the binding signal stood at 0.645.

Consider GAGACT, for which the binding signal turned out to be 0.419.

Consider AAGCCA, for which the binding signal was 0.864.

With GCAGGC, the binding signal was found to be 0.75.

For the sequence GTAGAG, the binding signal came to 0.618.

Regarding TCCAGG, the binding signal amounted to 0.845.

Sequence CAGGGG returned a binding signal of 0.631.

Sequence AGCAGT yielded a binding signal of 0.718.

Sequence TAAGTG showed a binding signal of 0.856.

The sequence GCGCAG yielded a binding signal of 0.878.

On to GAGTCG, for which the binding signal was 0.247.

As for CGGGAG, the binding signal came out at 0.262.

For GATTGG, the binding signal was 0.779.

GGCGTC: the binding signal was found to be 0.747.

CAGGGC displayed a binding signal of 0.808.

On to CAAGGA, for which the binding signal came out at 0.744.

AGGTAG showed a binding signal of 0.731.

Sequence GAGCGG yielded a binding signal of 0.517.

The target in the next experiment is ETV6 (UniProt P41212). The description is as above. The note with it: 10 mM Tris-HCl pH 7.5, 50 mM NaCl, 1 mM DTT, 4% glycerol, room temperature, 30 min; GST-TFs on glutathione beads, 16-mer random dsDNA library, 0.1% …; high values mean tight binding; double strand, one strand shown; scale: fold enrichment (6-mer frequency, TF over GST control).
In the case of GCAGAG, the binding signal was 0.633.

Regarding GAGGCG, the binding signal was 0.372.

In turn, CTAGAG returned a binding signal of 0.816.

In the case of GGCAAG, the binding signal amounted to 0.745.

AGATAC came in with a binding signal of 0.872.

CCTGTC had a binding signal of 0.928.

For the sequence GAGTAA, the binding signal was found to be 0.55.

As to CCGTGT, the binding signal turned out to be 0.497.

On to GACTGA, for which the binding signal was 0.754.

Take TCGGTC: the binding signal is 0.542.

Sequence AGCCAA registered a binding signal of 0.843.

As for CGCGGA, the binding signal came out at 0.999.

Turning to GTGAGG, the binding signal was determined as 0.227.

For the sequence GTGGTG, the binding signal turned out to be 0.862.

The sequence GCCATA yielded a binding signal of 0.899.

GGCAGA had a binding signal of 0.625.

Consider TCGTAG, for which the binding signal came to 0.791.

The sequence CCGTCG had a binding signal of 0.759.

Sequence AGGACT came in with a binding signal of 0.883.

Consider GACTGG, for which the binding signal turned out to be 0.657.

Turning to TGCGTG, the binding signal is 0.618.

Take GAGACT: the binding signal was 0.385.

With AAGCCA, the binding signal turned out to be 0.817.

For GCAGGC, the binding signal stood at 0.734.

Turning to GTAGAG, the binding signal worked out at 0.547.

For TCCAGG, the binding signal turned out to be 0.878.

As for CAGGGG, the binding signal came to 0.576.

In the case of AGCAGT, the binding signal was 0.715.

TAAGTG: the binding signal was found to be 0.768.

As to GCGCAG, the binding signal came out at 0.859.

GAGTCG came in with a binding signal of 0.216.

In turn, CGGGAG had a binding signal of 0.197.

On to GATTGG, for which the binding signal amounted to 0.821.

For GGCGTC, the binding signal came to 0.774.

As for CAGGGC, the binding signal is 0.808.

CAAGGA showed a binding signal of 0.837.

AGGTAG displayed a binding signal of 0.71.

In turn, GAGCGG showed a binding signal of 0.545.
